Test results as given in the supplement of paper PMC12823440, “Inhibitors supercharge kinase turnover through native proteolytic circuits” (Nature, 2025).
Where a name gives a salt, the structure may show the parent alone. The list shows a part of the results. Hit calls seldom repeat between salt and free forms of one compound.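 Kinases were expressed as nanoluciferase fusions in K562 cells and luminescence was read every 4 h between 2 and 18 h as percent of control, DMSO set to 100% and a positive control to 0%. A time point counts as decreased when the signal drops significantly (2 sigma). The hit call is the authors' own, does not follow from the count of time points alone, and its rule is not shown.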

By UniProt entry, the sequences of proteins in these tests, tags left out. Where a name states a change or a piece, a line headed by the entry shows the natural chain unless it says otherwise.
UniProt Q9UQM7, whole entry: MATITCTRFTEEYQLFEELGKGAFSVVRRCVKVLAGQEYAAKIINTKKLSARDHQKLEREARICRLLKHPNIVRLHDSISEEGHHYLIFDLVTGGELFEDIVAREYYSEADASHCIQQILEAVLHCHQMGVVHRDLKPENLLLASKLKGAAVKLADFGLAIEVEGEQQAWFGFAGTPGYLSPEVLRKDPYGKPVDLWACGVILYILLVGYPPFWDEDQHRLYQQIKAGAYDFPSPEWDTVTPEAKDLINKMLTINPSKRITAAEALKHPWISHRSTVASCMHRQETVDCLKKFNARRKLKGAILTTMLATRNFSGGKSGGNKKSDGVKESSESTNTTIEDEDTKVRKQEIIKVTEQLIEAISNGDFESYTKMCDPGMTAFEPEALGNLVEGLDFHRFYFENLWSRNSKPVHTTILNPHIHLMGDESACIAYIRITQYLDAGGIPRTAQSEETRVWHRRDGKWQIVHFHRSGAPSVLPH
UniProt Q13555: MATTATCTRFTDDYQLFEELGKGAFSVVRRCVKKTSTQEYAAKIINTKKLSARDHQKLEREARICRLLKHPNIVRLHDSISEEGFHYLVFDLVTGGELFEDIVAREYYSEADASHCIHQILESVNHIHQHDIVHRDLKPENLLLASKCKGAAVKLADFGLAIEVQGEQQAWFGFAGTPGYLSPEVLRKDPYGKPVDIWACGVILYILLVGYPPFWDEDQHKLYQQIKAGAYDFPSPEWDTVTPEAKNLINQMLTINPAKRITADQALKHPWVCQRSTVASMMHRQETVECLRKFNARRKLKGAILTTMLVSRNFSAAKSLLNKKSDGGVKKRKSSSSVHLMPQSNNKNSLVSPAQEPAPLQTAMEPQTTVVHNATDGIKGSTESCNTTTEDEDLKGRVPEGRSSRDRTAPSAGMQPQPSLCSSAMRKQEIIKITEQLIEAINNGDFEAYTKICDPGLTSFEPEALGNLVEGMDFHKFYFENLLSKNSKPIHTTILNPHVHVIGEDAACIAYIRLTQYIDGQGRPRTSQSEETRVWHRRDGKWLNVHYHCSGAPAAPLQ
UniProt Q15131: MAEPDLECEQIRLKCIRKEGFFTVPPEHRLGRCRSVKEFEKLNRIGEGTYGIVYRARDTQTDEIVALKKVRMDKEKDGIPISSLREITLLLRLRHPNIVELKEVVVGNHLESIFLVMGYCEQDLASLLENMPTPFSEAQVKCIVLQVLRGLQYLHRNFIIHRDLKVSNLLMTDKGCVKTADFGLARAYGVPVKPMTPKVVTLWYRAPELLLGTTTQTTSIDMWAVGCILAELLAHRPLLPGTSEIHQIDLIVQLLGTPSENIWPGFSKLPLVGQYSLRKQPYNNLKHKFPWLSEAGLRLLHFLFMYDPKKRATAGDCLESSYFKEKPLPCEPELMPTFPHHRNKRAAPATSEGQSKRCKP
UniProt Q00526: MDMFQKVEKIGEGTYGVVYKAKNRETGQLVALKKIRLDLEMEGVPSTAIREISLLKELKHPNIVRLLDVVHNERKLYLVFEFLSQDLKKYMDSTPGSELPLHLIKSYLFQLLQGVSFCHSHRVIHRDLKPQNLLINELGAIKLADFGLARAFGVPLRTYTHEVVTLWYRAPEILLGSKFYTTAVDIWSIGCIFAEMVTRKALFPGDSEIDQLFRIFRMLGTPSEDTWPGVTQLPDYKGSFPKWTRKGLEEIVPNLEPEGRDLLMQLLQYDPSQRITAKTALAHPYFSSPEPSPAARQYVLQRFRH
UniProt P11802: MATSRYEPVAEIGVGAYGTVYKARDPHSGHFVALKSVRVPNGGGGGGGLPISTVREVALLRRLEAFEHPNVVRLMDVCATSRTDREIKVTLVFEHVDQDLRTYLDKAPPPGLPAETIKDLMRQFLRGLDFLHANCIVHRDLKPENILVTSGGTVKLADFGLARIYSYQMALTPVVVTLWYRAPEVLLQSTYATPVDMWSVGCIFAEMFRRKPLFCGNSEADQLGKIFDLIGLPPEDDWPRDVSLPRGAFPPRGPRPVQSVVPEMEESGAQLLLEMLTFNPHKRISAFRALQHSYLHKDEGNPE
UniProt Q00535, whole entry, looked up: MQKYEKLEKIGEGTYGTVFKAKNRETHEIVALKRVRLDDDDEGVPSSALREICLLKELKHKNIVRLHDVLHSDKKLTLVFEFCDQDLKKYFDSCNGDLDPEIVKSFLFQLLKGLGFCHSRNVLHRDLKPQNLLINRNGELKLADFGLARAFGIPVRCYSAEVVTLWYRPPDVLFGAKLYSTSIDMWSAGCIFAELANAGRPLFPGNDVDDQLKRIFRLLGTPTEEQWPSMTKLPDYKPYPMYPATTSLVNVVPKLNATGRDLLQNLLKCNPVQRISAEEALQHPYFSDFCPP
UniProt Q00534, whole entry: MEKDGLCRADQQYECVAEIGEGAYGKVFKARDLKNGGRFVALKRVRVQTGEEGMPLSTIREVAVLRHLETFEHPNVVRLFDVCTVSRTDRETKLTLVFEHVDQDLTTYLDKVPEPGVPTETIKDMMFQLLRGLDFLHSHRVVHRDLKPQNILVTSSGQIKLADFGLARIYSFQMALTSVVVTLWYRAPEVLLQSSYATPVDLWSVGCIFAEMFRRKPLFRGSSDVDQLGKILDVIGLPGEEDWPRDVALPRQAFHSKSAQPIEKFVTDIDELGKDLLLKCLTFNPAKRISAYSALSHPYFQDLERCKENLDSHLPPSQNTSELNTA
UniProt P50750, whole entry: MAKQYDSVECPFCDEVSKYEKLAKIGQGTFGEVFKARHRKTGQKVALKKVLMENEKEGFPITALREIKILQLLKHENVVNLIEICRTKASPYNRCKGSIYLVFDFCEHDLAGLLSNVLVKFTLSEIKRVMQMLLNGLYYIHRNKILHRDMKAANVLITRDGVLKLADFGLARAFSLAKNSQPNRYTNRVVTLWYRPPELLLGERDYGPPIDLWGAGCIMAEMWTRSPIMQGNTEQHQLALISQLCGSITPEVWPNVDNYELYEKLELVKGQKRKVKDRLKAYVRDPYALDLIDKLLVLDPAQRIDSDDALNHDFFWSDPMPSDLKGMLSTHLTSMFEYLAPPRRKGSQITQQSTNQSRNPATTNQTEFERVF
UniProt O96017, whole entry: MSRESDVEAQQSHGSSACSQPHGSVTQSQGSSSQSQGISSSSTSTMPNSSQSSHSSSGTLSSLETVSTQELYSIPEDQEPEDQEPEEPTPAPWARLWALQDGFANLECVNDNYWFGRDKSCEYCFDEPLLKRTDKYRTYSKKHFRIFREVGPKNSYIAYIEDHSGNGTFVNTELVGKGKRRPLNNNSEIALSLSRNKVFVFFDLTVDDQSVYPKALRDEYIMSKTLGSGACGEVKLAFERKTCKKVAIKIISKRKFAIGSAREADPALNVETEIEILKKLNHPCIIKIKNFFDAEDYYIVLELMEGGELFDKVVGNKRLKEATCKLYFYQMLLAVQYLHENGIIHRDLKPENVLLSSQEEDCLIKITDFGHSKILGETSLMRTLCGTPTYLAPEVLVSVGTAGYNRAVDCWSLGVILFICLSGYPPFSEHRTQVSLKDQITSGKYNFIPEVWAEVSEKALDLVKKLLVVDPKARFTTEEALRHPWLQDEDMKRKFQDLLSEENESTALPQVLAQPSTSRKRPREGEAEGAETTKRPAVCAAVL
UniProt P41240: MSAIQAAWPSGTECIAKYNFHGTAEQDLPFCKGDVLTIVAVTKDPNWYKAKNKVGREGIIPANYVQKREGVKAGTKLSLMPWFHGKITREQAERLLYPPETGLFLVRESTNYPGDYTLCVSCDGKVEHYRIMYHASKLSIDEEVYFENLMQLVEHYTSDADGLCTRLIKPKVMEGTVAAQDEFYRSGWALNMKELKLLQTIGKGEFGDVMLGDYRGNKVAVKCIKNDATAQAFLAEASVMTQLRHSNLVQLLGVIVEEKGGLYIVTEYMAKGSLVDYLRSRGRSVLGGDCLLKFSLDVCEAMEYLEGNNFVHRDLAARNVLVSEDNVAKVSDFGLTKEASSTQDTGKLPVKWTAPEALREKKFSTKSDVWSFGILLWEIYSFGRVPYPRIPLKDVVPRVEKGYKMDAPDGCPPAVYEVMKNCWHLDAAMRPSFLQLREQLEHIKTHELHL
UniProt P48729: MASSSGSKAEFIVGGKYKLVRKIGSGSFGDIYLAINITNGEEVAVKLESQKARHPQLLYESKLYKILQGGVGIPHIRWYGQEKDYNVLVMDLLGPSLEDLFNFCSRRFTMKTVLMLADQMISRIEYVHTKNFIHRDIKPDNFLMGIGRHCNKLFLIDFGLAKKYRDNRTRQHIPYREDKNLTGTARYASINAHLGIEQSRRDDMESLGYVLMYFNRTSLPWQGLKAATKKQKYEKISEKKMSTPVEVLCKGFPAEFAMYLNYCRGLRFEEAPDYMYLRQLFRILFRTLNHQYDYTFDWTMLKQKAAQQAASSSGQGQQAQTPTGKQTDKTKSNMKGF
UniProt P48730: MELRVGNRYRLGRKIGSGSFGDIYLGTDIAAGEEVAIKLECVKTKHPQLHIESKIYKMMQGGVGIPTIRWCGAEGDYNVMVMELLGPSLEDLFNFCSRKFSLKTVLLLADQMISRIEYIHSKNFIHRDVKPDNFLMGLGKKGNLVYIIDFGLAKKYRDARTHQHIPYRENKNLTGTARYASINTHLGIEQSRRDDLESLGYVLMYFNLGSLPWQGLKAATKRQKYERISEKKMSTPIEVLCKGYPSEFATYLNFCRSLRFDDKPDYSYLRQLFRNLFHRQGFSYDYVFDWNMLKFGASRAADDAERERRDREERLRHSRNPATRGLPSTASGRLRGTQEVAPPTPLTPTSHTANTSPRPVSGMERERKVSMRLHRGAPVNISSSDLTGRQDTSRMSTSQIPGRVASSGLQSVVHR
UniProt Q08345: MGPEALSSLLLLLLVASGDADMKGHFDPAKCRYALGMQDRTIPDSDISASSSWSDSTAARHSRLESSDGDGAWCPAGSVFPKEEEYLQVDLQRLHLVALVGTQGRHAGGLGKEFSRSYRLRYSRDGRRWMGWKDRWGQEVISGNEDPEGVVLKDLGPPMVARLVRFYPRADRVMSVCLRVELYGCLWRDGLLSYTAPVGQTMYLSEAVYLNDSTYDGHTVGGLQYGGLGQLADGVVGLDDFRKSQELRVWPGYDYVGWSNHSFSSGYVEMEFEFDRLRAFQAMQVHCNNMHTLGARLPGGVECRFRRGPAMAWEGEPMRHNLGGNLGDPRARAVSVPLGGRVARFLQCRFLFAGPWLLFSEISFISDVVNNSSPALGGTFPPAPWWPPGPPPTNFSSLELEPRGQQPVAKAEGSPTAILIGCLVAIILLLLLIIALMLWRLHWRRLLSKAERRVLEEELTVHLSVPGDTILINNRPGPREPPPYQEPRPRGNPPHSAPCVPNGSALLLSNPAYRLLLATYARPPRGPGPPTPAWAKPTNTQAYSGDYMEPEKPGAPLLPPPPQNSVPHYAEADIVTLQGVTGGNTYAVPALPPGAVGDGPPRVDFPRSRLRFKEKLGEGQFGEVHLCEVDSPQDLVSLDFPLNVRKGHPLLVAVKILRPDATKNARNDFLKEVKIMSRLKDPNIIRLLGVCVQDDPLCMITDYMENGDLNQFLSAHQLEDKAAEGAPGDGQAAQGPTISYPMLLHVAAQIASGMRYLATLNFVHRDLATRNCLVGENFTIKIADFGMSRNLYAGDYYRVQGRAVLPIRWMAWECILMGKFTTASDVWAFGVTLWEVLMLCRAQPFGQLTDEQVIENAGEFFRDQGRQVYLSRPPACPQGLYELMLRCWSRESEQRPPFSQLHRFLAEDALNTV
UniProt Q9Y463, whole entry, looked up: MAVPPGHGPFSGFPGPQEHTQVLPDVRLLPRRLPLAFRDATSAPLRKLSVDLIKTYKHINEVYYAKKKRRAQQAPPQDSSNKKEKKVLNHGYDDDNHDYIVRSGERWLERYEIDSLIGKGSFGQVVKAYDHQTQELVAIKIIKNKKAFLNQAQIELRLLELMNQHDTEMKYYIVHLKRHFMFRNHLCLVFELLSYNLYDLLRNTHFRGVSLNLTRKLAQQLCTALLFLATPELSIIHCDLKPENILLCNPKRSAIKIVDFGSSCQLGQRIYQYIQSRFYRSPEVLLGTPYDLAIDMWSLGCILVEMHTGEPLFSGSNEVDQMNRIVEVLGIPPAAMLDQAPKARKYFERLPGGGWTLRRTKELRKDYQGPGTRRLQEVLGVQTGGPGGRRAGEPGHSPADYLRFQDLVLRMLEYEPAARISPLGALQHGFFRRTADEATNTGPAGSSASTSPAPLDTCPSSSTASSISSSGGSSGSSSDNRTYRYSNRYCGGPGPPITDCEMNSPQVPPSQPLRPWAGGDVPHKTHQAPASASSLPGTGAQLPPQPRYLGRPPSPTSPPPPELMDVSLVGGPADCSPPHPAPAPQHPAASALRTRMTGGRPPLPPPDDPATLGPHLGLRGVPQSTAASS

Columns and labels:
Assay in all cases: kinase-Nluc reporter destabilization hit call (1 = scored as downregulated) (binary); higher = compound decreases kinase abundance
Settings in all cases: K562; 2-18 h
[1] = system: BRAF_V600E
[2] = target: BTK (UniProt Q06187)
[3] = target: CAMK2A (UniProt Q9UQM7)
[4] = target: CAMK2G (UniProt Q13555)
[5] = target: CDK10 (UniProt Q15131)
[6] = target: CDK2 (UniProt P24941)
[7] = target: CDK3 (UniProt Q00526)
[8] = target: CDK4 (UniProt P11802)
[9] = target: CDK5 (UniProt Q00535)
[10] = target: CDK6 (UniProt Q00534)
[11] = target: CDK7 (UniProt P50613)
[12] = target: CDK9 (UniProt P50750)
[13] = target: CHEK2 (UniProt O96017)
[14] = target: CSF1R (UniProt P07333)
[15] = target: CSK (UniProt P41240)
[16] = target: CSNK1A1 (UniProt P48729)
[17] = target: CSNK1D (UniProt P48730)
[18] = target: DDR1 (UniProt Q08345)
[19] = target: DYRK1B (UniProt Q9Y463)
[20] = target: DYRK2 (UniProt Q92630)

Measured: kinase-Nluc reporter destabilization hit call

CNC(=O)c1ccccc1Nc1nc(Nc2ccc3c(c2OC)CCC[C@H](N2CCN(CCO)CC2)C3)ncc1Cl (10 µM)
inactive: [1] 0 | [2] 0 | [3] 0 | [4] 0 | [5] 0 | [6] 0 | [7] 0 | [8] 0 | [9] 0 | [10] 0 | [11] 0 | [12] 0 | [13] 0 | [14] 0 | [15] 0 | [16] 0 | [17] 0 | [18] 0 | [19] 0 | [20] 0

O=C(Nc1nc2ccc(NC(=O)C34CC5CC(CC(C5)C3)C4)cc2s1)c1ccccc1 (10 µM)
inactive: [1] 0 | [2] 0 | [3] 0 | [4] 0 | [5] 0 | [6] 0 | [7] 0 | [8] 0 | [9] 0 | [10] 0 | [11] 0 | [12] 0 | [13] 0 | [14] 0 | [15] 0 | [16] 0 | [17] 0 | [18] 0 | [19] 0 | [20] 0

COc1cc2ncnc(Nc3ccccc3)c2cc1OC (10 µM)
inactive: [1] 0 | [2] 0 | [3] 0 | [4] 0 | [5] 0 | [6] 0 | [7] 0 | [8] 0 | [9] 0 | [10] 0 | [11] 0 | [12] 0 | [13] 0 | [14] 0 | [15] 0 | [16] 0 | [17] 0 | [18] 0 | [19] 0 | [20] 0

CC(C)=CCc1c(-c2ccc(O)cc2O)oc2c3c(cc(O)c2c1=O)OC(C)(C)C=C3 [Morusin] (2.5 µM)
inactive: [1] 0 | [2] 0 | [3] 0 | [4] 0 | [5] 0 | [6] 0 | [7] 0 | [8] 0 | [9] 0 | [10] 0 | [11] 0 | [12] 0 | [13] 0 | [14] 0 | [15] 0 | [16] 0 | [17] 0 | [18] 0 | [19] 0 | [20] 0

CNC(=O)c1ccccc1Oc1nc(Nc2cc(OC)c(OC)c(OC)c2)ncc1Br (2.5 µM)
inactive: [1] 0 | [2] 0 | [3] 0 | [4] 0 | [5] 0 | [6] 0 | [7] 0 | [8] 0 | [9] 0 | [10] 0 | [11] 0 | [12] 0 | [13] 0 | [14] 0 | [15] 0 | [16] 0 | [17] 0 | [18] 0 | [19] 0 | [20] 0

O=Nc1c2[nH]c3ccccc3nc-2c2ccccc12 [IQ-1S (free acid)] (2.5 µM)
inactive: [1] 0 | [2] 0 | [3] 0 | [4] 0 | [5] 0 | [6] 0 | [7] 0 | [8] 0 | [9] 0 | [10] 0 | [11] 0 | [12] 0 | [13] 0 | [14] 0 | [15] 0 | [16] 0 | [17] 0 | [18] 0 | [19] 0 | [20] 0

Cc1ncc(NC(=O)NC2c3ccccc3-c3ccccc32)c(-c2ccccc2)n1 (10 µM)
inactive: [1] 0 | [2] 0 | [3] 0 | [4] 0 | [5] 0 | [6] 0 | [7] 0 | [8] 0 | [9] 0 | [10] 0 | [11] 0 | [12] 0 | [13] 0 | [14] 0 | [15] 0 | [16] 0 | [17] 0 | [18] 0 | [19] 0 | [20] 0

CCN(CC)c1ccc2cc(-c3nc4cc(C)ccc4o3)c(=O)oc2c1 (10 µM)
inactive: [1] 0 | [2] 0 | [3] 0 | [4] 0 | [5] 0 | [6] 0 | [7] 0 | [8] 0 | [9] 0 | [10] 0 | [11] 0 | [12] 0 | [13] 0 | [14] 0 | [15] 0 | [16] 0 | [17] 0 | [18] 0 | [19] 0 | [20] 0

Cc1cc(C)nc(NS(=O)(=O)c2ccc(NC(=S)NC(=O)COc3ccc(Br)cc3Cl)cc2)n1 (2.5 µM)
inactive: [1] 0 | [2] 0 | [3] 0 | [4] 0 | [5] 0 | [6] 0 | [7] 0 | [8] 0 | [9] 0 | [10] 0 | [11] 0 | [12] 0 | [13] 0 | [14] 0 | [15] 0 | [16] 0 | [17] 0 | [18] 0 | [19] 0 | [20] 0

COc1cc(N(C)CCN(C)C)c(N)cc1Nc1nccc(-c2cn(C)c3ccccc23)n1 [Mutated EGFR-IN-1] (10 µM)
inactive: [1] 0 | [2] 0 | [3] 0 | [4] 0 | [5] 0 | [6] 0 | [7] 0 | [8] 0 | [9] 0 | [10] 0 | [11] 0 | [12] 0 | [13] 0 | [14] 0 | [15] 0 | [16] 0 | [17] 0 | [18] 0 | [19] 0 | [20] 0

N[C@@H](CCC(=O)O)C(=O)N[C@@H](Cc1c[nH]c2ccccc12)C(=O)O [Oglufanide] (10 µM)
inactive: [1] 0 | [2] 0 | [3] 0 | [4] 0 | [5] 0 | [6] 0 | [7] 0 | [8] 0 | [9] 0 | [10] 0 | [11] 0 | [12] 0 | [13] 0 | [14] 0 | [15] 0 | [16] 0 | [17] 0 | [18] 0 | [19] 0 | [20] 0

Cc1ccn2c(C(=O)C(=O)c3ccccc3)c(-c3ccccc3)nc2c1 (10 µM)
inactive: [1] 0 | [2] 0 | [3] 0 | [4] 0 | [5] 0 | [6] 0 | [7] 0 | [8] 0 | [9] 0 | [10] 0 | [11] 0 | [12] 0 | [13] 0 | [14] 0 | [15] 0 | [16] 0 | [17] 0 | [18] 0 | [19] 0 | [20] 0

Cc1ccc(-c2csc3ncnc(SCCC(=O)O)c23)cc1 (10 µM)
inactive: [1] 0 | [2] 0 | [3] 0 | [4] 0 | [5] 0 | [6] 0 | [7] 0 | [8] 0 | [9] 0 | [10] 0 | [11] 0 | [12] 0 | [13] 0 | [14] 0 | [15] 0 | [16] 0 | [17] 0 | [18] 0 | [19] 0 | [20] 0

Part of the list above in order of length of the SMILES, high to low:
Cc1cc(C)nc(NS(=O)(=O)c2ccc(NC(=S)NC(=O)COc3ccc(Br)cc3Cl)cc2)n1 (2.5 µM)
inactive: [1] 0 | [2] 0 | [3] 0 | [4] 0 | [5] 0 | [6] 0 | [7] 0 | [8] 0 | [9] 0 | [10] 0 | [11] 0 | [12] 0 | [13] 0 | [14] 0 | [15] 0 | [16] 0 | [17] 0 | [18] 0 | [19] 0 | [20] 0

O=C(Nc1nc2ccc(NC(=O)C34CC5CC(CC(C5)C3)C4)cc2s1)c1ccccc1 (10 µM)
inactive: [1] 0 | [2] 0 | [3] 0 | [4] 0 | [5] 0 | [6] 0 | [7] 0 | [8] 0 | [9] 0 | [10] 0 | [11] 0 | [12] 0 | [13] 0 | [14] 0 | [15] 0 | [16] 0 | [17] 0 | [18] 0 | [19] 0 | [20] 0

Cc1ccc(-c2csc3ncnc(SCCC(=O)O)c23)cc1 (10 µM)
inactive: [1] 0 | [2] 0 | [3] 0 | [4] 0 | [5] 0 | [6] 0 | [7] 0 | [8] 0 | [9] 0 | [10] 0 | [11] 0 | [12] 0 | [13] 0 | [14] 0 | [15] 0 | [16] 0 | [17] 0 | [18] 0 | [19] 0 | [20] 0

Next part:

Nc1cccc(-c2cc3c(Oc4cccc(O)c4)ncnc3[nH]2)c1 (10 µM)
inactive: [1] 0 | [2] 0 | [3] 0 | [4] 0 | [5] 0 | [6] 0 | [7] 0 | [8] 0 | [9] 0 | [10] 0 | [11] 0 | [12] 0 | [13] 0 | [14] 0 | [15] 0 | [16] 0 | [17] 0 | [18] 0 | [19] 0 | [20] 0

CC(C)=CC(=O)O[C@H]1Cc2cc3ccc(=O)oc3cc2OC1(C)C [Decursin] (10 µM)
inactive: [1] 0 | [2] 0 | [3] 0 | [4] 0 | [5] 0 | [6] 0 | [7] 0 | [8] 0 | [9] 0 | [10] 0 | [11] 0 | [12] 0 | [13] 0 | [14] 0 | [15] 0 | [16] 0 | [17] 0 | [18] 0 | [19] 0 | [20] 0

CN(C)CCC=C1c2ccccc2CCc2ccccc21 [Amitriptyline (hydrochloride)] (2.5 µM)
inactive: [1] 0 | [2] 0 | [3] 0 | [4] 0 | [5] 0 | [6] 0 | [7] 0 | [8] 0 | [9] 0 | [10] 0 | [11] 0 | [12] 0 | [13] 0 | [14] 0 | [15] 0 | [16] 0 | [17] 0 | [18] 0 | [19] 0 | [20] 0
